Laboratory results: patent US20250073210A1, “Use of Ergothioneine for Enhancing Glutathione Level” (priority 2022, published 2025)
Where “and” joins values, the source holds several entries; their conditions need not be identical. Equal values may be shown once.

How the values were obtained:
Type in all cases: cell-based, human
GCLC = experiment: RT-qPCR PCR array mQPA-8-Nrf2, GCLC expression in NHEK
Procedure: (§1) In the present study, the effects of compound L-Ergothioneine were investigated in normal human epidermal keratinocytes (NHEK) under basal or UV-irradiated conditions. More specifically, the effects of this compound were evaluated using RT-qPCR technology. Extracted mRNA was analyzed using a PCR array (“mQPA-8-Nrf2”) for the analysis of 8 target genes (including 1 housekeeping gene) selected for their role in Nrf2 pathway. Prior to this assay, a preliminary cytotoxicity assay was performed on compound L-Ergothioneine and Resveratrol (reference in basal condition) using a standard WST-8 reduction assay, in order to determine the concentrations to be tested in this study.
(§2) Cell type: Normal human epidermal keratinocytes (NHEK) used at the 3rd passage. Culture conditions: 37° C., 5% CO2. Culture medium: Keratinocyte-SFM optimized for the assay, supplemented with Epidermal Growth Factor Pituitary extract. Assay medium: Keratinocyte-SFM optimized for the assay. Test compound: L-Ergothioneine in ultrapure water. Test concentrations: 0.5, 3 and 30 μM. Reference: Resveratrol. Test concentration: 20 μM.
(§3) Keratinocytes were seeded in 24-well plates and cultured for 24 hours in culture medium and in assay medium for a further 24 hours. The medium was then replaced by assay medium containing or not (control) the compound or Resveratrol and cells were pre-incubated for 24 hours.
(§4) After pre-incubation, the medium was then removed and replaced by a PBS solution. For basal conditions, the plate was kept in the dark during the irradiation time. For irradiated conditions, the cells were irradiated with UVB−275 mJ/cm^2 (+UVA−2 J/cm^2) using a SOL500 Sun Simulator equipped with an H2 filter (Dr. Hönle, AG). After irradiation time, the treatments were renewed, and the cells were incubated for 24 hours. All experimental conditions were performed in n=3. At the end of incubation, the cells were washed in phosphate buffered saline (PBS) solution and immediately frozen at −80° C.
(§5) The expression of markers was analyzed using RT-qPCR method on total RNA extracted from the cell monolayers of each experimental condition (before RNA extraction, the replicates of the same experimental condition were pooled). The analysis of transcripts was performed in n=2 using a PCR array dedicated to research and adapted to ‘screening’ format and targeting 8 genes selected for their role in Nrf2 pathway.
(§6) Total RNA was extracted from each sample using TriPure Isolation Reagent® according to the supplier's instructions. The amount and quality of RNA were evaluated using capillary electrophoresis (Bioanalyzer 2100, Agilent technologies). The complementary DNA (cDNA) was synthetized by reverse transcription of total RNA in presence of oligo(dT) and «Transcriptor Reverse Transcriptase» (Roche Molecular System Inc.). The cDNA quantities were then adjusted before PCR.
(§7) The PCR (Polymerase Chain Reaction) were performed using the «LightCycler®» system (Roche Molecular System Inc.) according to the supplier's instructions. The reaction mix (10 μl final) was prepared as follows: 2.5 μl of cDNA; primers (forward and reverse); reagent mix (Roche) containing taq DNA polymerase, SYBR Green I and MgCl2.
(§8) The incorporation of fluorescence in amplified DNA was continuously measured during the PCR cycles. […] The value selected for RE calculations is the “output point” (Ct) of the fluorescence curve. For a considered marker, the highest is the cycle number; the lowest is the mRNA quantity. The RE value was calculated with the formula: (½^number of cycles)×10^6. The PCR array used in the present study included 1 reference gene (RPS28).

HMOX1 = experiment: RT-qPCR PCR array mQPA-8-Nrf2, HMOX1 expression in NHEK
Procedure: as §1, §2, §3, §4, §5, §6, §7, §8

NQO1 = experiment: RT-qPCR PCR array mQPA-8-Nrf2, NQO1 expression in NHEK
Procedure: as §1, §2, §3, §4, §5, §6, §7, §8

MT1G = experiment: RT-qPCR PCR array mQPA-8-Nrf2, MT1G expression in NHEK
Procedure: as §1, §2, §3, §4, §5, §6, §7, §8

TXN = experiment: RT-qPCR PCR array mQPA-8-Nrf2, TXN expression in NHEK
Procedure: as §1, §2, §3, §4, §5, §6, §7, §8

GCLM = experiment: RT-qPCR PCR array mQPA-8-Nrf2, GCLM expression in NHEK
Procedure: as §1, §2, §3, §4, §5, §6, §7, §8

TXNRD1 = experiment: RT-qPCR PCR array mQPA-8-Nrf2, TXNRD1 expression in NHEK
Procedure: as §1, §2, §3, §4, §5, §6, §7, §8

RPS28 = experiment: RT-qPCR PCR array mQPA-8-Nrf2, housekeeping gene RPS28; settings: basal conditions, 20 μM
Procedure: In the present study, the effects of compound L-Ergothioneine were investigated in normal human epidermal keratinocytes (NHEK) under basal or UV-irradiated conditions. More specifically, the effects of this compound were evaluated using RT-qPCR technology. Extracted mRNA was analyzed using a PCR array (“mQPA-8-Nrf2”) for the analysis of 8 target genes (including 1 housekeeping gene) selected for their role in Nrf2 pathway. Prior to this assay, a preliminary cytotoxicity assay was performed on compound L-Ergothioneine and Resveratrol (reference in basal condition) using a standard WST-8 reduction assay, in order to determine the concentrations to be tested in this study. […]
The expression of markers was analyzed using RT-qPCR method on total RNA extracted from the cell monolayers of each experimental condition (before RNA extraction, the replicates of the same experimental condition were pooled). […]
Total RNA was extracted from each sample using TriPure Isolation Reagent® according to the supplier's instructions. The amount and quality of RNA were evaluated using capillary electrophoresis (Bioanalyzer 2100, Agilent technologies). […] The cDNA quantities were then adjusted before PCR. […]
The incorporation of fluorescence in amplified DNA was continuously measured during the PCR cycles. […] The value selected for RE calculations is the “output point” (Ct) of the fluorescence curve. […]

[1] = UV-irradiated (UVB-275 mJ/cm^2 +UVA-2 J/cm^2), 0.5 μM
[2] = UV-irradiated (UVB-275 mJ/cm^2 +UVA-2 J/cm^2), 3 μM
[3] = UV-irradiated (UVB-275 mJ/cm^2 +UVA-2 J/cm^2), 30 μM

For `C[N+](C)(C)[C@@H](Cc1c[nH]c(=S)[nH]1)C(=O)[O-]` [L-Ergothioneine, (2S)-3-(2-thioxo-2,3-dihydro-1H-imidazol-4-yl)-2-(trimethylammonio)-propanoate], the “GCLC Cycles” value (GCLC; [1]) was 26.75 and 26.78, the “GCLC Cycles” value (GCLC; [2]) was 26.58 and 26.55 and the “GCLC Cycles” value (GCLC; [3]) was 26.30 and 26.36. The “GCLC Cycles” value (GCLC; basal conditions, 0.5 μM) was 25.81 and 25.66, the “GCLC Cycles” value (GCLC; basal conditions, 3 μM) was 25.50 and 25.61 and the “GCLC Cycles” value (GCLC; basal conditions, 30 μM) was 25.44 and 25.28. The “HMOX1 Cycles” value (HMOX1; [1]) was 25.94 and 26.05, the “HMOX1 Cycles” value (HMOX1; [2]) was 26.05 and 25.90 and the “HMOX1 Cycles” value (HMOX1; [3]) was 25.92 and 25.85. The “HMOX1 Cycles” value (HMOX1; basal conditions, 0.5 μM) was 28.50 and 28.54, the “HMOX1 Cycles” value (HMOX1; basal conditions, 3 μM) was 28.54 and 28.19 and the “HMOX1 Cycles” value (HMOX1; basal conditions, 30 μM) was 28.24 and 28.33. For the same compound, the “NQO1 Cycles” value (NQO1; [1]) was 31.98 and 31.69, the “NQO1 Cycles” value (NQO1; [2]) was 31.63 and 31.72 and the “NQO1 Cycles” value (NQO1; [3]) was 31.24 and 31.47. For the same compound, the “NQO1 Cycles” value (NQO1; basal conditions, 0.5 μM) was 31.95 and 32.00, the “NQO1 Cycles” value (NQO1; basal conditions, 3 μM) was 31.86 and 31.81 and the “NQO1 Cycles” value (NQO1; basal conditions, 30 μM) was 31.55 and 31.73. The “MT1G Cycles” value (MT1G; [1]) was 27.67 and 27.74, the “MT1G Cycles” value (MT1G; [2]) was 27.52 and 27.57 and the “MT1G Cycles” value (MT1G; [3]) was 27.72. For the same compound, the “MT1G Cycles” value (MT1G; basal conditions, 0.5 μM) was 25.85 and 25.98, the “MT1G Cycles” value (MT1G; basal conditions, 3 μM) was 26.08 and 25.95 and the “MT1G Cycles” value (MT1G; basal conditions, 30 μM) was 25.86 and 25.82. The “TXN Cycles” value (TXN; [1]) was 19.56 and 19.58, the “TXN Cycles” value (TXN; [2]) was 19.45 and 19.48 and the “TXN Cycles” value (TXN; [3]) was 19.65 and 19.78. For the same compound, the “TXN Cycles” value (TXN; basal conditions, 0.5 μM) was 19.39 and 19.61, the “TXN Cycles” value (TXN; basal conditions, 3 μM) was 19.34 and 19.60 and the “TXN Cycles” value (TXN; basal conditions, 30 μM) was 19.27 and 19.29. For the same compound, the “GCLM Cycles” value (GCLM; [1]) was 26.49 and 26.24, the “GCLM Cycles” value (GCLM; [2]) was 26.23 and 26.24 and the “GCLM Cycles” value (GCLM; [3]) was 26.47 and 26.57. For the same compound, the “GCLM Cycles” value (GCLM; basal conditions, 0.5 μM) was 24.77 and 24.78, the “GCLM Cycles” value (GCLM; basal conditions, 3 μM) was 24.66 and 24.64 and the “GCLM Cycles” value (GCLM; basal conditions, 30 μM) was 24.65 and 24.70. For the same compound, the “TXNRD1 Cycles” value (TXNRD1; [1]) was 24.14 and 23.99, the “TXNRD1 Cycles” value (TXNRD1; [2]) was 24.15 and 24.13 and the “TXNRD1 Cycles” value (TXNRD1; [3]) was 24.07 and 24.16. The “TXNRD1 Cycles” value (TXNRD1; basal conditions, 0.5 μM) was 23.76 and 23.63, the “TXNRD1 Cycles” value (TXNRD1; basal conditions, 3 μM) was 23.65 and 23.67 and the “TXNRD1 Cycles” value (TXNRD1; basal conditions, 30 μM) was 23.52.
`Oc1ccc(C=Cc2cc(O)cc(O)c2)cc1` [Resveratrol] was tested, and the “GCLC Cycles” value (GCLC; basal conditions, 20 μM) was 23.73 and 23.72, the “HMOX1 Cycles” value (HMOX1; basal conditions, 20 μM) was 26.35 and 26.53 and the “NQO1 Cycles” value (NQO1; basal conditions, 20 μM) was 28.76 and 28.74. For the same compound, the “MT1G Cycles” value (MT1G; basal conditions, 20 μM) was 26.77 and 26.71, the “TXN Cycles” value (TXN; basal conditions, 20 μM) was 17.80 and 17.83 and the “RPS28 Cycles” value (RPS28) was 20.91 and 20.69. For the same compound, the “GCLM Cycles” value (GCLM; basal conditions, 20 μM) was 22.14 and 22.11 and the “TXNRD1 Cycles” value (TXNRD1; basal conditions, 20 μM) was 21.35 and 21.22.
